Reference: patent US9063046B1, “Hand-held device with reagents and method for detection and diagnostics” (priority 2012, dated 2015)
Entries after “also recorded” stand apart in the source; their conditions may differ.

Experiments:
B. atrophaeus endospores = tested on: B. atrophaeus endospores; design: species or system Bacillus atrophaeus
B. atrophaeus spores = test: Effect of disinfectant on real-time PCR detection of spores; settings: for effect on PCR of spores: at concentration of use: sodium hypochlorite 0.05% v/v, guanidium thiocyanate 3.5 M, peracetic acid 0.03%, cupric ascorbate 0.5%, 30 min 21° C.
PIXV = tested on: PIXV; design: species or system Pixuna virus; settings: relative to controls not exposed to germicidal agent

Row | Molecule | effect on ELISA of spores (B. atrophaeus endospores) | effect on PCR of spores (B. atrophaeus spores) | increase in number of PCR cycles to detect PIXV relative to controls (PIXV) | limit of detection of ELISA tests to determine spores (B. atrophaeus endospores) | effect on PCR of spores (B. atrophaeus spores; listed as PAA) | PCR of spores at five-fold higher concentration (B. atrophaeus spores; cupric ascorbate five-fold higher than 0.5% in Cu++)
1 | N#CS.N=C(N)N [Guanidium thiocyanate, guanidium thiocyanate, reference compound] | does not hinder | does not hinder | – | – | – | –
2 | CC(=O)OO [peracetic acid] | slightly; also recorded: only affected by PAA at a concentration ten times higher | slightly | about 4 cycles | marginally reduced | only marginally affected | –
3 | cupric ascorbate | slightly; also recorded: no impact | slightly; also recorded: neglectable | – | marginally reduced | – | does not impair
4 | OCl [sodium hypochlorite, reference compound] | – | completely inhibits | – | – | – | –
5 | O=CCCCC=O [glutaraldehyde, reference compound] | impair the performance | impair the performance | – | – | – | –
6 | OO [hydrogen peroxide, reference compound] | impair the performance | impair the performance | – | – | – | –
